For some of these results: At least one compound was matched to its structure with a doubt left. Some of these results come from one statement about several compounds together.
Experiments:
[1] = UV-VIS absorption spectra; type: physicochemical
Method: Fluorescent spectra were recorded on an FLS920 Fluorescence Spectrometer from Edinburgh Instrument. A quartz cuvette with 3 mL volume and 1 cm length was used. Absorption spectra were recorded on a ThermoFisher NanoDrop 1000 Spectrophotometer. The two-photon measurements were performed on the custom Femtonics Dobos Dual system using a water immersion lens, a Mai Tai High-Power laser operated at 50 mW. For processing the images, ImageJ software was used.

[2] = cited from earlier work

SMILES	UV spectra extends over [1]	further results
O=C1N=C(Nc2ccccc2)N/C1=C\c1ccc2ccc3ccc(/C=C4\NC(Nc5ccccc5)=NC4=O)nc3c2n1 [compound 35, (5Z,5′Z)-5,5′-((1,10-phenanthroline-2,9-diyl)bis(methanylylidene))bis(2-(phenylamino)-1,5-dihydro-4H-imidazol-4-one)]	over 550 nm	–
CCOC(=O)COc1cc(NS(=O)(=O)c2ccc(C)cc2)c2nc(C)ccc2c1 [Zinquin Ester]	–	excitation [2]: only UV-
Cc1ccc(S(=O)(=O)Nc2cc(OCC(=O)O)cc3ccc(C)nc23)cc1 [Zinquin Acid]	–	range of activity [2]: 1 to 2 µM
O=C1NC(Nc2ccccc2)=N/C1=C\c1ccc2ccc3cccnc3c2n1 [compound 34, (Z)-5-((1,10-phenanthrolin-2-yl)methylene)-2-(phenylamino)-3,5-dihydro-4H-imidazol-4-one]	over 550 nm	–
